# In PubChem BioAssay AID2685 (National Center for Advancing Translational Sciences (NCATS), 2010):
# The list shows a part of the results. The main result of the screen is listed elsewhere. These columns were measured beside it and carry no call. Most of these compounds were active or inconclusive in the main read-out, so they are no random draw. Potencies come from curve fits of mixed quality, noted in brackets.
# Assay: qHTS Assay for Lipid Storage Modulators in Drosophila S3 Cells;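 for cell number change: cells counted by Cell Tracker Red CMTPX staining in the red channel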
# Details: BODIPY lipid droplet fluorescence, 18-24 h; for cell number change: measured here: cell count max response, cells fed with added oleic acid
# Summary of the method: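 Drosophila S3 cells got compounds at several concentrations plus oleic acid (400 uM solution). Laser-scanning cytometry with 488 nm excitation read lipid droplets at 500-530 nm and cells at 575-640 nm. Percent activity was relative to 20 uM Triacsin C.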
# [1] = measured here: cell number channel AC50, cells fed with added oleic acid
# [2] = measured here: lipid fluorescence (Fed channel) AC50, cells fed with added oleic acid
SMILES,cell number change [%],AC50 [1],AC50 [2]
CCc1cccc(C)c1NC(=O)Cn1nc(C)n2cccc2c1=O,11.9,,
Cc1ccc(N2CCN(CC(O)COc3ccc([N+](=O)[O-])cc3)CC2)cc1 (configuration not stated),-24.2,"1.84 µM [rising, single point]","2.59 µM [rising, single point]"
COc1cc(C(=O)Nc2nc(-c3ccc(Cl)cc3)c(C)s2)ccc1OCC(=O)Nc1ccc(F)cc1,-23.1,,"2.91 µM [falling, full curve, poor fit]"
CC(C)COc1nc2ccccc2nc1C(C#N)C(=O)NC1CCCCC1 (configuration not stated),99.5,"29.1 µM [rising, single point]","0.231 µM [rising, full curve, poor fit]"
COCC(C)NC(=O)CCS(=O)(=O)c1nc(-c2ccc(OC)cc2)cc(C(F)(F)F)n1 (configuration not stated),13.3,,"16.4 µM [falling, partial curve]"
O=C(CSC1=NS(=O)(=O)c2cc(Cl)ccc2N1)NCc1ccccc1,,"0.13 µM [falling, full curve, poor fit]","1.84 µM [rising, single point]"
C#CCOCCOCCOCCNc1nc(N2CCN(C(=O)CCCCCCCCCCNC(=O)[C@H](CCCCN)n3cc(C[C@@H](C)CC)nn3)CC2)nc(N2CCN(C(=O)CCCCCCCCCCNC(=O)[C@H](CCCN=C(N)N)n3cc(C[C@@H](C)CC)nn3)CC2)n1,-61.6,"2.91 µM [falling, full curve, poor fit]","29.1 µM [falling, partial curve, poor fit]"
COCCn1c(SCC(=O)Nc2cc(C)on2)nnc1-c1ccco1,24.5,,"20.6 µM [falling, single point]"
CCn1c(=O)n(CC)c2cc(N3CCCC3)c(NC(=O)c3ccccc3OC)cc21,-23,,"0.00651 µM [falling, full curve, poor fit]"
N#Cc1c(SCC(=O)Nc2ccc(Cl)cc2Cl)sc2c(O)cc(=O)[nH]c12,12,,"25.9 µM [rising, partial curve, poor fit]"
CCCS(=O)(=O)c1c(S(=O)(=O)CCC)c2c(C)cccn2c1C(=O)N/N=C/c1cc(O)cc(O)c1,-21.3,,"20.6 µM [falling, single point]"
CC(=O)N(C)c1ccc(NC(=S)NCC(C)C)cc1,24.3,,
O=C(NCC1CCCO1)c1cc2ccccc2oc1=O (configuration not stated),16.3,,
COc1cc(C#Cc2ccc3cc(CCCO)oc(=O)c3c2)cc(OC)c1,,,"0.146 µM [rising, single point]"
CCOC(=O)NC(=S)Nc1ccc(OC)cc1,-20.1,,
CN(C)c1ccc(/C=N\S(=O)(=O)c2ccccc2)cc1,-22.6,,"0.366 µM [falling, full curve]"
O=S(=O)(c1cccc(NC(=S)N2CCN(c3ccccc3)CC2)c1)C(F)F,14.4,,"3.26 µM [rising, single point]"
COc1ccc(CNC(=O)CCN2C(=S)NC(C)(C)CC2C)cc1 (configuration not stated),,"6.51 µM [rising, single point]",
CCS(=O)(=O)c1ccc2oc(Nc3ccccc3Br)nc2c1,-6.58,"1.16 µM [falling, full curve]","0.92 µM [falling, full curve]"

# Fetched by compound from above (two):
SMILES,cell number change [%],AC50 [1],AC50 [2]
COc1cc(C(=O)Nc2nc(-c3ccc(Cl)cc3)c(C)s2)ccc1OCC(=O)Nc1ccc(F)cc1,-23.1,,"2.91 µM [falling, full curve, poor fit]"
COCC(C)NC(=O)CCS(=O)(=O)c1nc(-c2ccc(OC)cc2)cc(C(F)(F)F)n1 (configuration not stated),13.3,,"16.4 µM [falling, partial curve]"

# Further entries:

SMILES,cell number change [%],AC50 [1],AC50 [2]
COc1ccc(/C=C/C(=O)NCc2cn(C)nc2C)cc1COc1ccc(Br)cc1,-21.6,,"23.1 µM [falling, single point]"
CCOC(=O)C1CCN(C(=O)CCCn2nc(C)c3c(C)n(-c4ccc(C)cc4)nc3c2=O)CC1,4.18,,
O=C(c1ccc2c(=O)n(-c3ccccc3)c(=S)[nH]c2c1)N1CCCCC1,-49.3,"14.6 µM [falling, single point]","9.2 µM [falling, partial curve]"
O=C(Cn1ncc2c([nH]c3ccccc32)c1=O)N1CCN(c2ccc(F)cc2)CC1,29.5,,
Cc1nnc2ccc(-c3ccc(NS(=O)(=O)c4ccc(Cl)s4)cc3)nn12,-13.2,,"0.58 µM [falling, single point]"
CC(=O)Nc1ccc(C(=O)OCCCOC(=O)c2ccc(NC(C)=O)cc2)cc1,2.51,,"1.84 µM [rising, partial curve]"
COc1ccccc1NC(=O)C(C)OC(=O)C1COc2ccccc2O1 (configuration not stated),-12.9,,"0.00411 µM [falling, full curve, poor fit]"
O=C(CN1C(=O)C2C3C=CC(C4CC34)C2C1=O)Oc1ccccc1 (configuration not stated),52.2,"3.26 µM [falling, single point]","3.26 µM [falling, single point]"
CC/C(=N\O)c1c(O)c2c(n(-c3ccccc3)c1=O)CCCC2,-28.5,,"5.8 µM [falling, full curve]"
COc1cccc(OC)c1C(=O)Nc1ccccc1N1CCCC1,21.7,,"9.2 µM [rising, partial curve]"
CCC(=O)NC(=S)Nc1cccc(-c2nc3ncccc3o2)c1,-16.7,"0.13 µM [falling, full curve, poor fit]","0.259 µM [rising, partial curve, poor fit]"
CCc1ccc(NC2=CC(=O)CC(c3ccco3)C2)cc1 (configuration not stated),107,"23.1 µM [rising, single point]",
C#CC(C)OC(=O)C(C)NC(=O)c1ccccc1 (configuration not stated),6.51,,"0.259 µM [falling, full curve, poor fit]"
NC(=O)c1sc2nc3c(c(-c4cccs4)c2c1N)CCCCC3,,"0.13 µM [rising, full curve, poor fit]",
CC1Oc2ccccc2OC1C(=O)Nc1nccs1 (configuration not stated),36.9,"20.6 µM [rising, partial curve, poor fit]","5.8 µM [rising, full curve, poor fit]"
Cc1cc(C)cc(NC(=O)Cn2cc3c(n2)CCCCC3)c1,-25.4,,"16.4 µM [falling, single point]"
Cc1ccc(NC2=CC(=O)CC(C)(C)C2)cc1C,5.01,,
CCOC(=O)c1nnn(-c2nc(OC)nc(N(C)C)n2)c1-c1ccccc1,-26.5,,"25.9 µM [falling, single point]"
